Experimental data taken from patent US11324725B2, “Compositions and methods for the inhibition of pruritus” (The United States of America, as represented by the …, priority 2017, dated 2022).
Where “and” joins values, the source holds several entries; their conditions need not be identical. Equal entries are not always repeated. At least one compound was matched to its structure with a doubt left. Where a SMILES comes first, the peptide text is derived from it. Bridges are numbered along the chain shown (N, C = ends). [ ]: non-standard residue; d: D form. dTic = O=C(O)[C@H]1Cc2ccccc2CN1; Cha = N[C@@H](CC1CCCCC1)C(=O)O

Assays:
hNpr1 [1] = target: T1, hNpr1 (Homo sapiens, UniProt P16066); assay: Cell-free hNpr1 membrane cyclase assay (cGMP ELISA); assay type: biochemical
T1 sequence (P16066 33-1061): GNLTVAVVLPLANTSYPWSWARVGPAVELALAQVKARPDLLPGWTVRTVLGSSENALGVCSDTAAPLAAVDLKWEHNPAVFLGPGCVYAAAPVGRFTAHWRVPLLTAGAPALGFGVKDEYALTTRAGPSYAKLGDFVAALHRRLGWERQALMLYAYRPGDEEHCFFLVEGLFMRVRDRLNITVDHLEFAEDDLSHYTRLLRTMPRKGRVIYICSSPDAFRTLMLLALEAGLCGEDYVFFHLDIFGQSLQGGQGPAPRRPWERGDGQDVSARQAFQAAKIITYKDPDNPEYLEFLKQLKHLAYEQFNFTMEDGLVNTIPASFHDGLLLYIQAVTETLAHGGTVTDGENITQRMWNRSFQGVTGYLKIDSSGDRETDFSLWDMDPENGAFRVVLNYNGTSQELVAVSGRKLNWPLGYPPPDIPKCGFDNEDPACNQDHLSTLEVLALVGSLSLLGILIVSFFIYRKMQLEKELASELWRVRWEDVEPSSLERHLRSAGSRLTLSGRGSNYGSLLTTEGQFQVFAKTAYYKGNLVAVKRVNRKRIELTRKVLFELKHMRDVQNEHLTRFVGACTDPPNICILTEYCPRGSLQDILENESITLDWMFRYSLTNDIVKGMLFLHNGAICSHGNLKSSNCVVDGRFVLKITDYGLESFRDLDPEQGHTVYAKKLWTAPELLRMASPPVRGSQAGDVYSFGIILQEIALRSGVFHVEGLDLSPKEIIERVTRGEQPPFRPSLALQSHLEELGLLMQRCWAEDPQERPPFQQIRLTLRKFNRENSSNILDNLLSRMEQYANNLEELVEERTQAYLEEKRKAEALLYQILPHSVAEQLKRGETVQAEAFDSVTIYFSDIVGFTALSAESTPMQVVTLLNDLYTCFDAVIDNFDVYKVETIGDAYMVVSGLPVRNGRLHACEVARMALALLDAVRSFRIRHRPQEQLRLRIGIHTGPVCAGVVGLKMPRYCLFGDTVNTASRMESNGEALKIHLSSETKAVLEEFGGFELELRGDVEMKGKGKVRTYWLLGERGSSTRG

mNpr1 = target: T2, mNpr1 (Mus musculus, UniProt P18293); assay: GloSensor assay, HEK-293 cells transiently expressing mNpr1 and pGS-40F; assay type: cell-based
T2 construct: host or cells: HEK-293, transient co-transfection with pGS-40F
T2 sequence (P18293 29-1057): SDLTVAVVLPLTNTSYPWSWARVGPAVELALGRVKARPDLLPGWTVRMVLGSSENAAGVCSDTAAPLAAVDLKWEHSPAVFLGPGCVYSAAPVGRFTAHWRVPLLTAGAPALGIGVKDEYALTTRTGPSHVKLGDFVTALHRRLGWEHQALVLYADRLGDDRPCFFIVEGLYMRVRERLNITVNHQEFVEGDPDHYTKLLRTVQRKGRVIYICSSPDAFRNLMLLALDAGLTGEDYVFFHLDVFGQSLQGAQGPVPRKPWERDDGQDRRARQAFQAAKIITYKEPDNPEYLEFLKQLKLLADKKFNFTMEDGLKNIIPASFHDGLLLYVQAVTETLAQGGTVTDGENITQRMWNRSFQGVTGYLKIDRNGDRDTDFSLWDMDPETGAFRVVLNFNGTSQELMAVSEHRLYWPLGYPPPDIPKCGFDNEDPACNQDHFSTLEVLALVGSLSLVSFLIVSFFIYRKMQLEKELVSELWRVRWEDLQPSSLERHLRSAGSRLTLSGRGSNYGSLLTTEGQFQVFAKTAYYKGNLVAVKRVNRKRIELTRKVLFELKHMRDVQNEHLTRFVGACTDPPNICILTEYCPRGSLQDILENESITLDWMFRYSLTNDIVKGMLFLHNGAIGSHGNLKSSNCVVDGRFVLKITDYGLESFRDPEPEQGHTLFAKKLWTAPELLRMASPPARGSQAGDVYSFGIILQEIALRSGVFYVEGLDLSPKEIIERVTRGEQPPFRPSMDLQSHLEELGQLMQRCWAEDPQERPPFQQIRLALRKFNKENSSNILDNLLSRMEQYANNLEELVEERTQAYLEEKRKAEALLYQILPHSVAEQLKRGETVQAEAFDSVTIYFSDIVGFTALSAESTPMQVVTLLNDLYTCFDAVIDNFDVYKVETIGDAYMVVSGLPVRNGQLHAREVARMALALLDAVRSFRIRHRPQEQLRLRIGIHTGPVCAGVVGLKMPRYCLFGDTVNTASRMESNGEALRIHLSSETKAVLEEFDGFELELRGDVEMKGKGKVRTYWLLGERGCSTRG
Method: HEK-293 cells (American Type Culture Collection “ATTC,” Manassas, Va.) were cultured in DMEM/F12 supplemented with 2 mM L-glutamine, 10% FBS, 100 U/ml penicillin, and 100 μg/ml streptomycin. For transient expression, 8×10^5 cells were seeded in 6-wells, cultured for 24 hours, and then transfected using TransIT®-293 (Mirus, Madison, Wis.) according to the manufacturer's instructions. After transfection (48 hours), cells were used to measure intracellular cGMP production. […]
Before the measurement (24 hours in advance), 3×10^4 cells were seeded into white 96-well plates (PerkinElmer, Waltham, Mass.), coated with 0.1% poly(D-lysine), and assays conducted as recommended by the manufacturer (Promega). […] Luminescence was measured on a BioTek Synergy™ NEO (Winooski, Vt.) plate reader at room temperature. After a baseline measurement of 3-5 minutes, assay medium as a control or assay medium with agonist was manually added, and luminescence was measured for 30 minutes at ˜ 1/60 Hz. For compounds tested for Npr1 and Npr2 inhibition, the compounds were added after baseline measurements, and luminescence was read for 5 minutes before addition of agonist. Luminescence was then normalized to baseline measurements and plotted against the time. Ligand-induced changes of cGMP production were quantified by determining the area under the curve. […]

hNpr1 [2] = target: T1, hNpr1; assay: GloSensor assay in 96-well format, HEK-hNpr1-cGMP-sensor cells; assay type: cell-based
Method: Before the measurement (24 hours in advance), 3×10^4 cells were seeded into white 96-well plates (PerkinElmer, Waltham, Mass.), coated with 0.1% poly(D-lysine), and assays conducted as recommended by the manufacturer (Promega). Medium was aspirated and cells were loaded for two hours at room temperature with 2% GoSensor™ reagent diluted in CO2-independent media (ThermoFisher) supplemented with 2 mM L-glutamine and 10% FBS (assay medium). Luminescence was measured on a BioTek Synergy™ NEO (Winooski, Vt.) plate reader at room temperature. After a baseline measurement of 3-5 minutes, assay medium as a control or assay medium with agonist was manually added, and luminescence was measured for 30 minutes at ˜ 1/60 Hz. For compounds tested for Npr1 and Npr2 inhibition, the compounds were added after baseline measurements, and luminescence was read for 5 minutes before addition of agonist. Luminescence was then normalized to baseline measurements and plotted against the time. Ligand-induced changes of cGMP production were quantified by determining the area under the curve. […] To quantify efficacy (IC50) and potency (Imax) of compounds, compound-induced changes of agonist-induced cGMP production were normalized to vehicle controls, plotted against compound concentration, and fit with a four-parameter logistic regression. […]

Compound: CC[C@H](C)[C@@H]1NC(=O)[C@H](CCCNC(=N)N)NC(=O)CNC(=O)CNC(=O)[C@H](CC2CCCCC2)NC(=O)[C@@H](NC(=O)[C@@H](N)CCCNC(=N)N)CSSC[C@@H](C(N)=O)NC(=O)[C@H](CCCNC(=N)N)NC(=O)[C@H]2Cc3ccccc3CN2C(=O)[C@H]([C@@H](C)CC)NC(=O)[C@H](CCCNC(=N)N)NC(=O)[C@H](CC(=O)O)NC1=O [Compound A-71915, reference compound] (H-RC[Cha]GGRIDRI[dTic]RC-NH2; disulfide 2-13; N-terminus and C-terminus assumed)
- Ki (hNpr1 [1]; calculated with Cheng-Prusoff equation from Table 4, read-out: Ki hNpr1 cyclase assay [μM] (mean ± SEM)): 0.02 ± 0.004 µM
- IC50 (hNpr1 [1]; membranes of HEK-hNpr1-cGMP-sensor cells, hNppa-stimulated, read-out: IC50 [μM] (mean ± SEM), membrane cyclase assay): 0.1 ± 0.03 µM
- IC50 (mNpr1; 1 nM mNppb 5 minutes after compound, read-out: IC50 [μM] (mean ± SEM), mNpr1): 2 µM and 2.2 µM
- Ki (mNpr1; calculated with Cheng-Prusoff equation from Table 6, read-out: Ki mNpr1 GloSensor™ [μM] (mean ± SEM)): 0.05 ± 0.005 µM
- IC50 (hNpr1 [2]; 60 pM hNppa 5 minutes after compound, read-out: IC50 [μM] (mean ± SEM), GloSensor 96-well format): 1.1 ± 0.1 µM
- Ki (hNpr1 [2]; calculated with Cheng-Prusoff equation from Table 3, read-out: Ki hNpr1 GloSensor™ [μM] (mean ± SEM)): 0.18 ± 0.016 µM
